# Measured values: PubChem BioAssay (EPA / NIEHS)
# By UniProt entry, the sequences of proteins in these tests, tags left out. Where a name states a change or a piece, a line headed by the entry shows the natural chain unless it says otherwise.
# UniProt P19793: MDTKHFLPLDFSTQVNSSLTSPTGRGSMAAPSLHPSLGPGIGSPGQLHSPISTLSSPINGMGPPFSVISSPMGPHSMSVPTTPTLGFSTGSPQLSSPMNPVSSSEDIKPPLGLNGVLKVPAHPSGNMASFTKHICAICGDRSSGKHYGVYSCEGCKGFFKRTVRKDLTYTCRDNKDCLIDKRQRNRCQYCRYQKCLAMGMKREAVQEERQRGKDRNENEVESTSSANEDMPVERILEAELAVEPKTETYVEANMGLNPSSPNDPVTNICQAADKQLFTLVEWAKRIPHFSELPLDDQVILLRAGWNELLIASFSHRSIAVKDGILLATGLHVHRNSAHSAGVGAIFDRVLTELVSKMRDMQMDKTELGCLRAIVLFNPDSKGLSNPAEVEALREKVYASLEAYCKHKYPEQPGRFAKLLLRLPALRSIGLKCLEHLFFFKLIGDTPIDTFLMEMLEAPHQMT
# UniProt P04637, whole entry, looked up: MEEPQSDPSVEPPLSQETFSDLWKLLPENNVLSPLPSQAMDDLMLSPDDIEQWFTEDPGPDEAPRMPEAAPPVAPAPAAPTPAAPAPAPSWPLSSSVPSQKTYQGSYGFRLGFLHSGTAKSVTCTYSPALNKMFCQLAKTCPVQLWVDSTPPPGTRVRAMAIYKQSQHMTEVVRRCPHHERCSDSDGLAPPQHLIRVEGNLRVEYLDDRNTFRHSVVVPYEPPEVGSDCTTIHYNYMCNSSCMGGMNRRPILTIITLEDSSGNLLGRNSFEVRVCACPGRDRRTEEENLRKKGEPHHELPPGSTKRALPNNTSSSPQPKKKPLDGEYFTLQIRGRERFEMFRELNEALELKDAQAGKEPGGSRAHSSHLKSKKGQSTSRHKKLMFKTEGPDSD
# UniProt P37231: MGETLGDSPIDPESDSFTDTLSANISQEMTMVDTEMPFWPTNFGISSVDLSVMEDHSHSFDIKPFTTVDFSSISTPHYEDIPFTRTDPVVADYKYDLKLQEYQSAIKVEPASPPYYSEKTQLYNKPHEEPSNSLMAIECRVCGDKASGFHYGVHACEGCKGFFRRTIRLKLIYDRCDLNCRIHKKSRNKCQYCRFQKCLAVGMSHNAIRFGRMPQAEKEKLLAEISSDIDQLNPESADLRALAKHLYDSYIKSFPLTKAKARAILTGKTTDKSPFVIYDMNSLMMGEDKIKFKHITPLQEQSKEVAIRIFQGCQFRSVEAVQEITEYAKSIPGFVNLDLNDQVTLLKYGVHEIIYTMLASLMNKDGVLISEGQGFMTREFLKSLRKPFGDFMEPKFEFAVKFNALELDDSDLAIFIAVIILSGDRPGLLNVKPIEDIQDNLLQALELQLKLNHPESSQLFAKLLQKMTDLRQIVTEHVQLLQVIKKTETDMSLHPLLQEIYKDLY
# Values joined by “and” are separate entries in the source; they are usually repeats but may differ in a detail not shown here. Equal entries are not always repeated. Inconclusive results, whose numbers are uncertain, are shown with a selection of clear calls. Potencies beside an inconclusive call are fits to weak or partial responses and may not hold up. Some compounds were tested as several samples or in several runs, with calls that do not always agree. Active and inactive are the calls of the source. Rule for the calls: active = hit-call score of the fitted dose curve at least 0.9, where 1 is the maximum; inconclusive = response in the unintended direction; inactive = score below 0.9.
# Columns and labels:
# [1] = target: Retinoic acid receptor RXR-alpha (Homo sapiens) (UniProt P19793); test: OT_NURR1_NURR1RXRa_0480: Odyssey Thera (OT) 8-hour HEK293T Protein Complementation Assay for Nurr1/retinoid X receptor (RXR) (AID 2283385)
# How it was run: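 8 h compound exposure, HEK293T; Nurr1/RXRα fragment complementation; fluorescence intensity; positive fitting direction vs DMSO baseline.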
# [2] = target: Retinoic acid receptor RXR-alpha (Homo sapiens) (UniProt P19793); test: OT_NURR1_NURR1RXRa_1440: Odyssey Thera (OT) 24-hour HEK293T Protein Complementation Assay for Nurr1/retinoid X receptor (RXR) (AID 2283386)
# How it was run: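 Interaction of Nurr1 with RXRα brings fused reporter fragments together in human HEK293T cells, restoring a functional reporter. Fluorescence intensity is measured 24 h after chemical treatment, and values are analysed in the positive direction against DMSO.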
# [3] = target: Cellular tumor antigen p53 (Homo sapiens) (UniProt P04637); test: TOX21_p53_BLA_p2_ratio: Tox21 HCT-116 p53 Agonism Beta-lactamase Assay, Ratio, Phase 2 (AID 2283592)
# How it was run: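 HCT-116 cells with p53-responsive beta-lactamase reporter, 4000 cells/well, preincubated 5 h, then compound in DMSO (217-fold dilution) for 16 h at 37C. CCF4-AM substrate 2 h at room temperature; 460/530 nm emission ratio fitted upward versus DMSO.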
# [4] = target: Cellular tumor antigen p53 (Homo sapiens) (UniProt P04637); test: TOX21_p53_BLA_p3_ratio: Tox21 HCT-116 p53 Agonism Beta-lactamase Assay, Ratio, Phase 3 (AID 2283596)
# How it was run: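 HCT116 p53-bla cells (4000/well) given compound in DMSO (217-fold dilution) after 5 h, incubated 16 h at 37C. CCF4-AM substrate 2 h at room temperature; 460/530 nm emission ratio, gain fitted against DMSO.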
# [5] = ATG_XTT_Cytotoxicity: Cytotoxicity Assessment in the Attagene TRANS-FACTORIAL HepG2 Assay (AID 2283584);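 for AC50: XTT signal for cell number as viability in transfected HepG2 cells; cells exposed to compound for 24 h before reading; active means loss of viability signal versus DMSO baseline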
# How it was run: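 HepG2 cells transiently transfected with GAL4-UAS multiple reporter units, dosed 24 h; cytotoxicity read by XTT as loss of signal versus DMSO baseline.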
# [6] = TOX21_p53_BLA_p2_viability: Viability Assessment in the Tox21 HCT-116 p53 Agonism Beta-lactamase Assay, Phase 2 (AID 2283591);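 note: compound exposure lasted 16 h at 37 °C; actives lower the ATP signal meaning cytotoxicity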
# How it was run: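 Cytotoxicity readout: CellTiter-Glo ATP luminescence, 30 min at room temperature, after the beta-lactamase read. Cells were HCT116 exposed 16 h at 37C to compounds pin-transferred at 217-fold dilution from DMSO stocks.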
# [7] = TOX21_p53_BLA_p3_viability: Viability Assessment in the Tox21 HCT-116 p53 Agonism Beta-lactamase Assay, Phase 3 (AID 2283593);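 note: cells exposed to compound for 16 h before reading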
# How it was run: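 Cellular ATP was quantified by CellTiter-Glo luminescence, read after 30 min at room temperature. Beforehand, HCT116 cells (4000/well) received compound 5 h post-seeding, 217-fold diluted from DMSO, then incubated 16 h at 37C.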
# [8] = target: Peroxisome proliferator-activated receptor gamma (Homo sapiens) (UniProt P37231); test: OT_PPARg_PPARgSRC1_0480: Odyssey Thera (OT) 8-hour Protein-Complementation Assay for Peroxisome Proliferator-activated Receptor Gamma / SRC-1 Co-activator (AID 2283387)
# How it was run: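 Protein-fragment complementation in HEK293T: Venus YFP halves (residues 1-158, 159-239, mutated to IFP1/IFP2) fused to PPARg/SRC-1. 8 h exposure; N/C ratio at 488 nm; DMSO negative control.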
# [9] = target: Peroxisome proliferator-activated receptor gamma (Homo sapiens) (UniProt P37231); test: OT_PPARg_PPARgSRC1_1440: Odyssey Thera (OT) 24-hour Protein-Complementation Assay for Peroxisome Proliferator-activated Receptor Gamma/ SRC-1 Co-activator (AID 2283388)
# How it was run: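 HEK293T transiently transfected with PPARg/SRC-1 split-Venus YFP fusions 48 h before dosing, then treated 24 h at 37C. Fixed cells imaged; nuclear/cytoplasmic 488 nm fluorescence ratio, gain of signal versus DMSO.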
smiles,measurement,setting,value
O=[N+]([O-])c1ccc(O)cc1C(F)(F)F,AC50,[1],inconclusive: 4.65 µM
same,AC50,[2],active: 86.8 µM
same,AC50,[3],active: 28.2 µM
same,AC50,[4],active: 42 µM
COc1ccc2c(c1)c(CC(=O)O)c(C)n2C(=O)c1ccc(Cl)cc1,AC50,[1],inconclusive: 50 µM
same,outcome,[5],inactive
same,AC50,[6],inconclusive: 46.1 µM
same,AC50,[3],inconclusive: 46.1 µM and inconclusive: 23 µM
same,AC50,[7],inconclusive: 1.19 µM
same,AC50,[4],inconclusive: 46.1 µM and inconclusive: 35.7 µM
same,outcome,[4],inactive
Cc1ccc([N+](=O)[O-])cc1N,AC50,[1],inconclusive: 50 µM
same,AC50,[8],inconclusive: 88.9 µM
same,AC50,[6],inconclusive: 46.1 µM and inconclusive: 46 µM
same,AC50,[3],inconclusive: 46 µM
same,AC50,[7],inconclusive: 46.1 µM and inconclusive: 12.8 µM
same,AC50,[4],inconclusive: 26.5 µM
CC(C)C[C@H]1C(=O)N2CCC[C@H]2[C@]2(O)O[C@](NC(=O)[C@@H]3C=C4c5cccc6[nH]c(Br)c(c56)C[C@H]4N(C)C3)(C(C)C)C(=O)N12,AC50,[1],inconclusive: 5.85 µM
same,outcome,[8],inactive
CCCC/C=C\CCCCCCCCCC=O,outcome,[1],inactive
same,AC50,[2],inconclusive: 50 µM
same,outcome,[7],inactive
CCCCCCCCc1ccc(S(=O)(=O)O)cc1,AC50,[1],inconclusive: 1.74 µM
same,AC50,[2],inconclusive: 49.8 µM
same,outcome,[7],inactive
CN1CCc2cccc3c2[C@H]1Cc1ccc(O)c(O)c1-3,AC50,[1],inconclusive: 12.1 µM
same,AC50,[2],inconclusive: 6.1 µM
same,AC50,[7],inconclusive: 0.346 µM
same,outcome,[4],inactive
CCCC[N+](C)(CCCC)CCCC,AC50,[1],inconclusive: 49.2 µM
same,outcome,[8],inactive
CC(C)COC(=O)CC(C(=O)OCC(C)C)S(=O)(=O)O (stereo unspecified),AC50,[1],inconclusive: 50 µM
same,outcome,[2],inactive
same,AC50,[4],inconclusive: 83.9 µM
O=C(O)C(=O)O,AC50,[1],inconclusive: 2.41 µM
same,AC50,[2],inconclusive: 14.1 µM
same,AC50,[4],inconclusive: 70.7 µM
same,outcome,[4],inactive
Oc1ccccc1Cc1ccccc1O,AC50,[1],inconclusive: 50 µM
same,AC50,[2],inconclusive: 81.2 µM
same,AC50,[7],inconclusive: 0.0115 µM
CC(C)(C)c1cccc(C(C)(C)C)c1O,AC50,[1],active: 79.8 µM
same,AC50,[2],inconclusive: 50 µM
same,outcome,[7],inactive
CCCc1ccccc1,outcome,[1],inactive
same,AC50,[5],inconclusive: 0.0699 µM
same,AC50,[6],inconclusive: 0.00235 µM
same,outcome,[7],inactive
same,AC50,[4],inconclusive: 46.1 µM
CN(C)C(=O)Nc1ccccc1,outcome,[2],inactive
same,AC50,[5],inconclusive: 152 µM
CCC(C)(C)C1CCC(OC)CC1 (stereo unspecified),outcome,[1],inactive
same,outcome,[4],inactive
O=C1NC(=O)C2CC=CCC12 (stereo unspecified),AC50,[1],inconclusive: 50 µM
same,outcome,[7],inactive
same,outcome,[4],inactive
O=C1O[C@H]([C@H](O)CO)C(O)=C1O,outcome,[1],inactive
same,AC50,[3],inconclusive: 85 µM
same,outcome,[7],inactive
same,AC50,[4],inconclusive: 46.1 µM
Oc1ccc2c(c1)-c1ccccc1C2,AC50,[2],inconclusive: 13.2 µM
C=CCc1cc(S(=O)(=O)c2ccc(O)c(CC=C)c2)ccc1O,AC50,[2],inconclusive: 12.6 µM and inconclusive: 12.7 µM
same,AC50,[8],inconclusive: 50 µM
same,AC50,[9],inconclusive: 27.8 µM
CC(C)(C)c1ccc(O)c(C(C)(C)C)c1,AC50,[2],inconclusive: 84 µM and inconclusive: 93.7 µM
same,AC50,[8],inconclusive: 35.3 µM
same,AC50,[9],inconclusive: 66.4 µM
same,AC50,[6],active: 42.4 µM
same,AC50,[7],active: 63.6 µM and active: 86.7 µM
CC/C(=C\C(=N/O)C(N)=O)C(C)[N+](=O)[O-] (stereo unspecified),AC50,[1],active: 31.6 µM
same,AC50,[3],inconclusive: 46.1 µM
same,AC50,[7],inconclusive: 46.1 µM
same,outcome,[4],inactive
CCn1nc(C)c2c1C(=O)NCC(c1ccc(O)cc1)=N2,AC50,[2],active: 21.4 µM
same,outcome,[2],inactive
same,outcome,[7],inactive
O=C1CCC(N2C(=O)c3ccccc3C2=O)C(=O)N1 (stereo unspecified),outcome,[1],inactive
same,outcome,[4],inactive
Cc1ccc(O)cc1,AC50,[2],inconclusive: 11.1 µM
same,outcome,[2],inactive
same,AC50,[5],inconclusive: 116 µM
same,AC50,[6],inconclusive: 46.1 µM and inconclusive: 47.6 µM and inconclusive: 23 µM
same,AC50,[3],inconclusive: 23 µM
same,AC50,[7],inconclusive: 46.1 µM and inconclusive: 47.6 µM and inconclusive: 23 µM

# Taken from the results shown for reference:
smiles,measurement,setting,value
O=C1O[C@H]([C@H](O)CO)C(O)=C1O,AC50,[3],inconclusive: 85 µM
same,outcome,[7],inactive
same,AC50,[4],inconclusive: 46.1 µM
Oc1ccc2c(c1)-c1ccccc1C2,AC50,[2],inconclusive: 13.2 µM
C=CCc1cc(S(=O)(=O)c2ccc(O)c(CC=C)c2)ccc1O,AC50,[2],inconclusive: 12.6 µM and inconclusive: 12.7 µM
same,AC50,[8],inconclusive: 50 µM
same,AC50,[9],inconclusive: 27.8 µM
CC(C)(C)c1ccc(O)c(C(C)(C)C)c1,AC50,[2],inconclusive: 84 µM and inconclusive: 93.7 µM
same,AC50,[8],inconclusive: 35.3 µM
same,AC50,[9],inconclusive: 66.4 µM
same,AC50,[6],active: 42.4 µM
same,AC50,[7],active: 63.6 µM and active: 86.7 µM
CC/C(=C\C(=N/O)C(N)=O)C(C)[N+](=O)[O-] (stereo unspecified),AC50,[1],active: 31.6 µM
same,AC50,[3],inconclusive: 46.1 µM
same,AC50,[7],inconclusive: 46.1 µM
same,outcome,[4],inactive
CCn1nc(C)c2c1C(=O)NCC(c1ccc(O)cc1)=N2,AC50,[2],active: 21.4 µM
same,outcome,[2],inactive
same,outcome,[7],inactive
O=C1CCC(N2C(=O)c3ccccc3C2=O)C(=O)N1 (stereo unspecified),outcome,[1],inactive
same,outcome,[4],inactive
